The numbers were not newly measured in paper PMC4749642, “Evaluation of anticonvulsant and antinociceptive properties of new N-Mannich bases derived from pyrrolidine-2,5-dione and 3-methylpyrrolidine-2,5-dione” (Naunyn-Schmiedeberg's Archives of Pharmacology, 2015), which cites them from elsewhere.

The test system of data set [1] is mice. More on the design: method as in Rybka et al. [2014]; Kamiński et al. [2015a]. Particulars: ref Rybka et al. [2014]; Kamiński et al. [2015a]; cited from earlier work.
In data set [2] the test system is mice. Particulars: ref Rybka et al. [2014]; Kamiński et al. [2015a]; cited from earlier work.

Where “and” joins values, the source holds several entries; their conditions need not be identical. Identical values can stand only once.

For `CC1CC(=O)N(CN2CCN(c3ccc(Cl)c(Cl)c3)CC2)C1=O` (centres unmarked) [Compound 12, N-[{4-(3,4-dichlorophenyl)-piperazin-1-yl}-methyl]-3-methylpyrrolidine-2,5-dione], in the data set with mice [1], the “protective index (PI) in the MES test” value was > 31 and 31. For the same compound, in the data set with mice [2], the “protective index (PI) in the s.c.PTZ test” value is reported as greater than 3.73.

Consider `O=C1NC(=O)C(c2ccccc2)(c2ccccc2)N1` [Phenytoin, reference compound], for which, in the data set on mice [1], the “protective index (PI) in the MES test” value was 7.74. Turning to `CCC1(C)CC(=O)NC1=O` (centres unmarked) [ethosuximide, reference compound], the “protective index (PI) in the s.c.PTZ test” value in the data set with mice [2] was 2.5. In the case of `CCCC(CCC)C(=O)O` [valproic acid, reference compound], in the data set with mice [1], the “protective index (PI) in the MES test” value is listed as 1.5. Also, the “protective index (PI) in the s.c.PTZ test” value with mice [2] is 1.8.

Take `O=C1CCC(=O)N1CN1CCN(c2ccc(Cl)c(Cl)c2)CC1` [Compound 23, N-[{4-(3,4-dichlorophenyl)-piperazin-1-yl}-methyl]-pyrrolidine-2,5-dione]: the “protective index (PI) in the MES test” value in the data set with mice [1] was > 13 and 13. Besides, in the data set with mice [2], the “protective index (PI) in the s.c.PTZ test” value is listed as greater than 3.88.
